# The other results are listed elsewhere or left out.
# B1: Wzz (Escherichia coli) (protein)
# chain: MRTWKFPSVRVMMRVENNNVSGQNHDPEQIDLIDLLVQLWRGKMTIIISVIVAIVLAIGYLAVAKEKWTSTAIITQPDVGQIAGYNNAMNVIYGQAAPKVSDLQETLIGRFSSAFSALAETLDNQEEPEKLTIEPSVKNQQLPLTVSYVGQTAEGAQMKLAQYIQQVDDKVNQELEKDLKDNIALGRKNLQDSLRTQEVVAQEQKDLRIRQIQEALQYANQAQVTKPQIQQTGEDITQDTLFLLGSEALESMIKHEATRPLVFSSNYYQTRQNLLDIDNLDVDKLDIHAYLYVMKPTLPIRRDSPKKAITLILAVLLGGMVGAGIVLGRNALRNYNAK
# What was measured:
# Assay in all cases: glycan array binding signal (z-score within array); higher = stronger binding
# Conditions in all cases: glycan notation: IUPAC condensed, linker removed
# [1] = biological target: Fuc(a1-2)Gal(b1-4)GlcNAc(b1-3)Gal(b1-4)GlcNAc(b1-3)Gal(b1-4)GlcNAc
# How it was run: (§1)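 Glycan array binding is given as a within-array Z-score, which can be read as non-binding when negative. The arrays, 3228 of them, came from the Consortium for Functional Glycomics database and were retained only where the protein sequence was available. Z-scores were averaged across arrays of the same protein sequence at different concentrations or buffers and across linkers.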
# [2] = biological target: Fuc(a1-2)Gal(b1-4)GlcNAc(b1-3)GalNAc
# How it was run: as §1
# [3] = biological target: Fuc(a1-2)Gal(b1-4)GlcNAc(b1-3)[Fuc(a1-2)Gal(b1-4)GlcNAc(b1-6)]GalNAc
# How it was run: as §1
# [4] = biological target: Fuc(a1-2)Gal(b1-4)GlcNAc(b1-3)[Fuc(a1-3)[Gal(b1-4)]GlcNAc(b1-6)]Gal(b1-4)Glc
# How it was run: as §1
# [5] = biological target: Fuc(a1-2)Gal(b1-4)GlcNAc(b1-6)GalNAc
# How it was run: as §1
# [6] = biological target: Fuc(a1-2)Gal(b1-4)GlcNAc6S
# How it was run: as §1
# [7] = biological target: Fuc(a1-2)Gal(b1-4)[Fuc(a1-3)]GlcNAc
# How it was run: as §1
# [8] = biological target: Fuc(a1-2)Gal(b1-4)[Fuc(a1-3)]GlcNAc(b1-2)Man(a1-3)[Fuc(a1-2)Gal(b1-4)[Fuc(a1-3)]GlcNAc(b1-2)Man(a1-6)]Man(b1-4)GlcNAc(b1-4)[Fuc(a1-6)]GlcNAc
# How it was run: as §1
# [9] = biological target: Fuc(a1-2)Gal(b1-4)[Fuc(a1-3)]GlcNAc(b1-2)[Fuc(a1-2)Gal(b1-4)[Fuc(a1-3)]GlcNAc(b1-4)]Man(a1-3)[Fuc(a1-2)Gal(b1-4)[Fuc(a1-3)]GlcNAc(b1-2)Man(a1-6)]Man(b1-4)GlcNAc(b1-4)GlcNAc
# How it was run: as §1
# [10] = biological target: Fuc(a1-2)Gal(b1-4)[Fuc(a1-3)]GlcNAc(b1-3)Gal(b1-4)[Fuc(a1-3)]GlcNAc
# How it was run: as §1
# [11] = biological target: Fuc(a1-2)Gal(b1-4)[Fuc(a1-3)]GlcNAc(b1-3)Gal(b1-4)[Fuc(a1-3)]GlcNAc(b1-3)Gal(b1-4)[Fuc(a1-3)]GlcNAc
# How it was run: as §1
# [12] = biological target: Fuc(a1-2)Gal(b1-4)[Fuc(a1-3)]GlcNAc(b1-3)GalNAc
# How it was run: as §1
# [13] = biological target: Fuc(a1-2)Gal(b1-4)[Fuc(a1-3)]GlcNAc(b1-3)[Neu5Ac(a2-6)Gal(b1-4)GlcNAc(b1-6)]Gal(b1-4)Glc
# How it was run: as §1
# [14] = biological target: Fuc(a1-2)Gal3S(b1-4)GlcNAc
# How it was run: as §1
# [15] = biological target: Fuc(a1-2)Gal6S(b1-3)GlcNAc
# How it was run: as §1
# [16] = biological target: Fuc(a1-2)Gal6S(b1-3)GlcNAc6S
# How it was run: as §1
# Fuc(a1-2)Gal6S(b1-4)Glc = biological target: Fuc(a1-2)Gal6S(b1-4)Glc
# How it was run: as §1
# [17] = biological target: Fuc(a1-2)Gal6S(b1-4)Glc6S
# How it was run: as §1
# Fuc(a1-2)[Gal(a1-3)]Gal = biological target: Fuc(a1-2)[Gal(a1-3)]Gal
# How it was run: as §1
# [18] = biological target: Fuc(a1-2)[Gal(a1-3)]Gal(b1-3)GalNAc
# How it was run: as §1
# [19] = biological target: Fuc(a1-2)[Gal(a1-3)]Gal(b1-3)GalNAc(b1-3)Gal(a1-4)Gal(b1-4)Glc
# How it was run: as §1
# [20] = biological target: Fuc(a1-2)[Gal(a1-3)]Gal(b1-3)GlcNAc
# How it was run: as §1
# [21] = biological target: Fuc(a1-2)[Gal(a1-3)]Gal(b1-3)GlcNAc(b1-2)Man(a1-3)[Fuc(a1-2)[Gal(a1-3)]Gal(b1-3)GlcNAc(b1-2)Man(a1-6)]Man(b1-4)GlcNAc(b1-4)GlcNAc
# How it was run: as §1
# [22] = biological target: Fuc(a1-2)[Gal(a1-3)]Gal(b1-3)GlcNAc(b1-2)Man(a1-3)[Fuc(a1-2)[Gal(a1-3)]Gal(b1-3)GlcNAc(b1-2)Man(a1-6)]Man(b1-4)GlcNAc(b1-4)[Fuc(a1-6)]GlcNAc
# How it was run: as §1
# [23] = biological target: Fuc(a1-2)[Gal(a1-3)]Gal(b1-3)GlcNAc(b1-3)GalNAc
# How it was run: as §1
# [24] = biological target: Fuc(a1-2)[Gal(a1-3)]Gal(b1-3)GlcNAc(b1-6)GalNAc
# How it was run: as §1
# [25] = biological target: Fuc(a1-2)[Gal(a1-3)]Gal(b1-4)Glc
# How it was run: as §1
# [26] = biological target: Fuc(a1-2)[Gal(a1-3)]Gal(b1-4)GlcNAc
# How it was run: as §1
# [27] = biological target: Fuc(a1-2)[Gal(a1-3)]Gal(b1-4)GlcNAc(b1-2)Man
# How it was run: as §1
# [28] = biological target: Fuc(a1-2)[Gal(a1-3)]Gal(b1-4)GlcNAc(b1-2)Man(a1-3)[Fuc(a1-2)[Gal(a1-3)]Gal(b1-4)GlcNAc(b1-2)Man(a1-6)]Man(b1-4)GlcNAc(b1-4)GlcNAc
# How it was run: as §1
binder,measurement,setting,value
B1,glycan array binding signal (z-score),[1],-0.292
same,glycan array binding signal (z-score),[2],0.153
same,glycan array binding signal (z-score),[3],0.1
same,glycan array binding signal (z-score),[4],0.371
same,glycan array binding signal (z-score),[5],0.365
same,glycan array binding signal (z-score),[6],-0.388
same,glycan array binding signal (z-score),[7],0.133
same,glycan array binding signal (z-score),[8],-0.807
same,glycan array binding signal (z-score),[9],-0.098
same,glycan array binding signal (z-score),[10],1.07
same,glycan array binding signal (z-score),[11],-0.281
same,glycan array binding signal (z-score),[12],0.591
same,glycan array binding signal (z-score),[13],-0.309
same,glycan array binding signal (z-score),[14],-1.07
same,glycan array binding signal (z-score),[15],-0.515
same,glycan array binding signal (z-score),[16],2.91
same,glycan array binding signal (z-score),Fuc(a1-2)Gal6S(b1-4)Glc,-0.255
same,glycan array binding signal (z-score),[17],-0.22
same,glycan array binding signal (z-score),Fuc(a1-2)[Gal(a1-3)]Gal,-0.641
same,glycan array binding signal (z-score),[18],0.243
same,glycan array binding signal (z-score),[19],-0.485
same,glycan array binding signal (z-score),[20],-0.492
same,glycan array binding signal (z-score),[21],-0.981
same,glycan array binding signal (z-score),[22],-0.018
same,glycan array binding signal (z-score),[23],-0.48
same,glycan array binding signal (z-score),[24],-0.173
same,glycan array binding signal (z-score),[25],0.055
same,glycan array binding signal (z-score),[26],-0.115
same,glycan array binding signal (z-score),[27],-0.349
same,glycan array binding signal (z-score),[28],0.605

# Reprinted from the results shown for reference:
binder,measurement,setting,value
B1,glycan array binding signal (z-score),[26],-0.115
same,glycan array binding signal (z-score),[27],-0.349

# — the supplement of paper PMC8728848
